{"source": "paper PMC9275681", "note": "A negative result means that nothing was seen under these conditions. For at least one entry, the source does not settle the construct or the ends of the probe.", "data": [{"molecular_target": "CenR~P (phosphorylated CenR, wild type) (Rhodobacter sphaeroides 2.4.1) (UniProt Q3IZK6)", "assay": "EMSA", "conditions": "CenR~P 0-1000 nM monomer, 15 nM DNA, 25 mM Tris-HCl pH 7.9, 5 mM EDTA, 10% glycerol, 40 mM K-glutamate, 20 ug/mL BSA, 1 mM DTT, 200 mM NaCl, 30 C 30 min, 6% native PAGE 0.5x TBE + 10% glycerol, recombinant protein, residues 1-228, protein details: H8-TEV tag cleaved by TEV protease and removed, probe letters rebuilt from the primers and the genome", "values": [{"sequence": "CCGTCCCTTCGACCCGCCTCTCCCCGTCCCGGCTCCGCCGTCCGCCCGATCCGCCCGCCCTTTCCCTTCGACCCACCCGCTTCCTCTCCGCCCGGCACCGCCGCCCGTCCGATCCCGCTTCCCGTCTACCCGCCCGCCGCTCCTTCCCGGTTCCGCCGCCCGCCCGATCCGCCAGCCTCTTCCCGTCCACCCGCCCGACGGTTCTCCTCCCGGTTCCGCCACCTGC (double strand) [RSP_2157 promoter fragment (no motif)]", "binding result": "no binding"}, {"sequence": "TGTAAGTGCTCATTCGTTGACCCCCTCTGACGTCTGCCGGCGTTCCGGCGACGCACGTTCCGTTCCGTCCGGCAGCGACGTCAGCGCTACCATGGACGTTTTAACGAGAGATGTTCAAGGAACCGTCGCGATGCCAGATTTGTTGCGGAATTTCACGCGAATGTAATCCGGCGTTACCCTTGCATCCGCGGCAGGAGAGACAGGAGGCTCGCCATATCCGCGGGCAAGGGGCTCTCGAAGCTCAGCTCCTCGCCGCTCACCGGATGGCGGAAGCCGAGGCTCGCCGCATGGAGCGCCTGCCGGGGGAAGGCTTCCGCCGCCGCCGCGGCCTCGGCCCCCAGTGCCTTCGGCGAGAGCTTG (double strand) [rpoH1 promoter fragment]", "binding result": "binds"}, {"sequence": "GCATCCTCCTCGATCAGGAGGTGCGCCGCGGTGAGGAGCGGCTTTTCGCGGCCCGCGTGGTGCTCGTGTGCCTCGCCGCCGACGGGCGTGCGGCGCGGCTTCCGGCGGAAGTCCGCCAAAAGCTTGTGCAGGCGGCCTGAAGCCCTGCAAAAGCAGCAGGTGGCGCAGCTTTGCCACTTGACGCAGATGTGTTGGCAATCCCTCTAAAAGCCGGATAGAATCGGCGTTAAGAACGGCCCGCAGAACGGCCCCCAGAGAGCAGGCAGATGGAAACGGAAACCCTCGCGATGGCGCAGGAGATTGATTTCTCCATGCTCGCCCTCTTCGCGCGCGCAACGCTCACCGTGAAGTTCG (double strand) [tolQ (tolQRAB) promoter fragment]", "binding result": "binds"}]}]}
